These are yes or no findings as the source states them, for the method shown. Binding seen in cells or lysates may run through a third protein. These calls come from enrichment with a bait or labelling near it, and not all partners need be listed.
What was measured:
Assay in all cases: affinity purification with mass spectrometry; anti-FLAG resin on lysates (0.3% CHAPS, 20 mM HEPES) of HEK293T transiently overexpressing FLAG-tagged GFP, wild-type or mutant COX5A; 2 h, 4 °C; washes in 20 mM HEPES pH 7.40, 150 mM NaCl; elution in 8 M urea; LC-MS/MS
COX5A-FLAG, wild type = COX5A-FLAG, wild type (UniProt P20674)
D81W-COX5A-FLAG = D81W-COX5A-FLAG (UniProt P20674)
T79G-COX5A-FLAG = T79G-COX5A-FLAG (UniProt P20674)
Y80W-COX5A-FLAG = Y80W-COX5A-FLAG (UniProt P20674)

Amino acid sequences for entries named in this document (tags omitted). A change or cut given only in a name is not applied to a line headed by its entry.
UniProt P20674: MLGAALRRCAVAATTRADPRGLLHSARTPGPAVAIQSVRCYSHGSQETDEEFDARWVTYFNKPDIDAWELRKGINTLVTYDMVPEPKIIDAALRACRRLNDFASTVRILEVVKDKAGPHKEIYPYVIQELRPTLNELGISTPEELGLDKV

Measured: binding

B1: PMPCB, beta subunit of the mitochondrial-processing peptidase (enzyme, UniProt O75439 44-489)
chain: STQAATQVVLNVPETRVTCLESGLRVASEDSGLSTCTVGLWIDAGSRYENEKNNGTAHFLEHMAFKGTKKRSQLDLELEIENMGAHLNAYTSREQTVYYAKAFSKDLPRAVEILADIIQNSTLGEAEIERERGVILREMQEVETNLQEVVFDYLHATAYQNTALGRTILGPTENIKSISRKDLVDYITTHYKGPRIVLAAAGGVSHDELLDLAKFHFGDSLCTHKGEIPALPPCKFTGSEIRVRDDKMPLAHLAIAVEAVGWAHPDTICLMVANTLIGNWDRSFGGGMNLSSKLAQLTCHGNLCHSFQSFNTSYTDTGLWGLYMVCESSTVADMLHVVQKEWMRLCTSVTESEVARARNLLKTNMLLQLDGSTPICEDIGRQMLCYNRRIPIPELEARIDAVNAETIREVCTKYIYNRSPAIAAVGPIKQLPDFKQIRSNMCWLRD
binds: all assays above

B2: PMPCA, alpha subunit of the mitochondrial-processing peptidase (enzyme, UniProt Q10713 34-525)
chain: SSGGAYPNIPLSSPLPGVPKPVFATVDGQEKFETKVTTLDNGLRVASQNKFGQFCTVGILINSGSRYEAKYLSGIAHFLEKLAFSSTARFDSKDEILLTLEKHGGICDCQTSRDTTMYAVSADSKGLDTVVALLADVVLQPRLTDEEVEMTRMAVQFELEDLNLRPDPEPLLTEMIHEAAYRENTVGLHRFCPTENVAKINREVLHSYLRNYYTPDRMVLAGVGVEHEHLVDCARKYLLGVQPAWGSAEAVDIDRSVAQYTGGIAKLERDMSNVSLGPTPIPELTHIMVGLESCSFLEEDFIPFAVLNMMMGGGGSFSAGGPGKGMFSRLYLNVLNRHHWMYNATSYHHSYEDTGLLCIHASADPRQVREMVEIITKEFILMGGTVDTVELERAKTQLTSMLMMNLESRPVIFEDVGRQVLATRSRKLPHELCTLIRNVKPEDVKRVASKMLRGKPAVAALGDLTDLPTYEHIQTALSSKDGRLPRTYRLFR
binds: all assays above

— publication PMC13423832
